Assay results as given in paper doi:10.1101/2024.10.04.616592.
These are yes or no findings as the source states them, for the method shown. In cells and extracts the contact can be indirect. A yes stands for co-enrichment or nearness to the bait. Other partners may have been found. Values belong to the molecule of their own block, whether it stands above or below them.

The chains behind the UniProt entries cited, without tags or fusion partners.
UniProt Q14145: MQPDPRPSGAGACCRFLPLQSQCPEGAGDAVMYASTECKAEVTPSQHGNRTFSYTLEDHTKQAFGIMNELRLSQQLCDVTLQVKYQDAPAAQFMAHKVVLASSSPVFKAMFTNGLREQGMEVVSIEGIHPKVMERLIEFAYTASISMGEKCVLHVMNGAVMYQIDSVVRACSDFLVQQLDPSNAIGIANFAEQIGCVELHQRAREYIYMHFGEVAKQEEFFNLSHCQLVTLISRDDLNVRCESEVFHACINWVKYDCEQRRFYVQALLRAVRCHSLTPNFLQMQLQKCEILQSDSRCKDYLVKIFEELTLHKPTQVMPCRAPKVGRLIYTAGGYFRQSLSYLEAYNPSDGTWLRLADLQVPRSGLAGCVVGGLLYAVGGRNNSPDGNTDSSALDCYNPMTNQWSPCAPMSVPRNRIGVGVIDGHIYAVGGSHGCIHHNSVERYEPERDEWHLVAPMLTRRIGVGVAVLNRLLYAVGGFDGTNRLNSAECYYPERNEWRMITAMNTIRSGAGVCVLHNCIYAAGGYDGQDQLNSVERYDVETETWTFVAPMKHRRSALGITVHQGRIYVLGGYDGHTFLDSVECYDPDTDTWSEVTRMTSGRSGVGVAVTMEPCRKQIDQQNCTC
UniProt O75155: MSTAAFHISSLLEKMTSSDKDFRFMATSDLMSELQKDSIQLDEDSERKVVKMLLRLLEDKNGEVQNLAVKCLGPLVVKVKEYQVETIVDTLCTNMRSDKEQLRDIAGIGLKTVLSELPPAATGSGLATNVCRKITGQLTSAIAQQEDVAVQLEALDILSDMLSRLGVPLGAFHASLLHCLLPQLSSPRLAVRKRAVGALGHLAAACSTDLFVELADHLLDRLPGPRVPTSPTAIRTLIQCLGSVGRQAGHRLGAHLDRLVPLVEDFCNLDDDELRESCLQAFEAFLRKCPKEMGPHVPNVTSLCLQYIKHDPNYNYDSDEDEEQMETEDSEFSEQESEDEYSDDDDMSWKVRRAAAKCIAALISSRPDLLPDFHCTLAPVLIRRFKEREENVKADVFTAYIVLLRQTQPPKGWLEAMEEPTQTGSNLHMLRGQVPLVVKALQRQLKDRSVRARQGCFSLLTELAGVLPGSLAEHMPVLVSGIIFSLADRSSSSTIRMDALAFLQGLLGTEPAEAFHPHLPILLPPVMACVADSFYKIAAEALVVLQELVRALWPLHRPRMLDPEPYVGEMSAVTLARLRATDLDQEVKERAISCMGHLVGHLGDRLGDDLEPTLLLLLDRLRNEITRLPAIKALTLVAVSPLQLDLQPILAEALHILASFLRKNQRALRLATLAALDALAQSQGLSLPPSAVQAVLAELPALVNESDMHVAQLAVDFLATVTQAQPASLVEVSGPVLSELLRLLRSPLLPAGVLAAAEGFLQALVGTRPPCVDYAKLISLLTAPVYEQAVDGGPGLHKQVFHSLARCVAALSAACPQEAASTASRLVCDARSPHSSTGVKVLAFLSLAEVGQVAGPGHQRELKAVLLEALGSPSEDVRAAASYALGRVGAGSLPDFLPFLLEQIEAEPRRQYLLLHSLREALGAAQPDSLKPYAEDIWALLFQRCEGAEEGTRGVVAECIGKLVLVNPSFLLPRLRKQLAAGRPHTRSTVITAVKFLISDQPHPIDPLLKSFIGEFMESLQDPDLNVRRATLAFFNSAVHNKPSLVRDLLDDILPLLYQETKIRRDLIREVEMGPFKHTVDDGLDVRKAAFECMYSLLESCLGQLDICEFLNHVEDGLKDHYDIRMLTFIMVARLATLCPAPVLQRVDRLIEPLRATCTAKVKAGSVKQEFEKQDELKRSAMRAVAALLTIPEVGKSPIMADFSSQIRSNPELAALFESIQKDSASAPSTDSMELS
UniProt Q9H2G2: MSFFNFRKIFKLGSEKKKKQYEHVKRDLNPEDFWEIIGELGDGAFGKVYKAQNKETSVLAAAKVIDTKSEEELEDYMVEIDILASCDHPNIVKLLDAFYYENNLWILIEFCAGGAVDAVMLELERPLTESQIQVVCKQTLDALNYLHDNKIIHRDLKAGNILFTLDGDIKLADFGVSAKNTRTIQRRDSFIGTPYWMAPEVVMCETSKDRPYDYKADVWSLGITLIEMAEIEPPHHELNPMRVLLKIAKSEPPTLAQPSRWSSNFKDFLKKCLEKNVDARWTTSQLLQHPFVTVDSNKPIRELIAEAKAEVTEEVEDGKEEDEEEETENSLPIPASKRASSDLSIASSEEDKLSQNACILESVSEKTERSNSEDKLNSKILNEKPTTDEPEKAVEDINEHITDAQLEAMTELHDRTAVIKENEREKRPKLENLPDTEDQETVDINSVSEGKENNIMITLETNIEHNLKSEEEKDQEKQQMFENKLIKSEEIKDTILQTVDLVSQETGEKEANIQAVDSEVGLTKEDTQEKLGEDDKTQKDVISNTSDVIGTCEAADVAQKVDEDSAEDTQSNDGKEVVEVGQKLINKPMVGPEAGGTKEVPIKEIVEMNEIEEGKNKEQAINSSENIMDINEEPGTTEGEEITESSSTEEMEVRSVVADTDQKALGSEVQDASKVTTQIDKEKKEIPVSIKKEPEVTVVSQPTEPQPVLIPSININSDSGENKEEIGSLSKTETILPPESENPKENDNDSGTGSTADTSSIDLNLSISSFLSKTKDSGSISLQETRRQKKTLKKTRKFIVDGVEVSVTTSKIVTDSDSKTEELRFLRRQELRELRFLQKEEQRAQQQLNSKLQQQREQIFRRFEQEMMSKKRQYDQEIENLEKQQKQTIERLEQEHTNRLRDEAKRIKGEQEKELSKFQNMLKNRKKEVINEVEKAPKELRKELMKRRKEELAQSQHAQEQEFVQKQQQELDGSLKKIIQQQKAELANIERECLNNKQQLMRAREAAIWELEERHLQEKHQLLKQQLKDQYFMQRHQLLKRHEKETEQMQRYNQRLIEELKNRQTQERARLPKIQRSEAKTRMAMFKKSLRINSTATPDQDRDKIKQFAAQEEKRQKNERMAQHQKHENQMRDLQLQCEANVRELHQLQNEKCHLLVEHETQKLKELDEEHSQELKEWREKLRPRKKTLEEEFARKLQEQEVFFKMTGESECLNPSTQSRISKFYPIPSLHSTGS

Legend:
[1] = biological target: N-terminally miniTurbo-tagged KEAP1 (UniProt Q14145); assay: proximity labelling
[2] = biological target: C-terminally miniTurbo-tagged KEAP1 (UniProt Q14145); assay: proximity labelling

Molecule: CAND2, endogenous (from UniProt O75155 1-1236)
binding [2]: binds
binding [1]: binds

B1: MCM3, endogenous (protein, UniProt P25205 1-808)
chain: MAGTVVLDDVELREAQRDYLDFLDDEEDQGIYQSKVRELISDNQYRLIVNVNDLRRKNEKRANRLLNNAFEELVAFQRALKDFVASIDATYAKQYEEFYVGLEGSFGSKHVSPRTLTSCFLSCVVCVEGIVTKCSLVRPKVVRSVHYCPATKKTIERRYSDLTTLVAFPSSSVYPTKDEENNPLETEYGLSVYKDHQTITIQEMPEKAPAGQLPRSVDVILDDDLVDKAKPGDRVQVVGTYRCLPGKKGGYTSGTFRTVLIACNVKQMSKDAQPSFSAEDIAKIKKFSKTRSKDIFDQLAKSLAPSIHGHDYVKKAILCLLLGGVERDLENGSHIRGDINILLIGDPSVAKSQLLRYVLCTAPRAIPTTGRGSSGVGLTAAVTTDQETGERRLEAGAMVLADRGVVCIDEFDKMSDMDRTAIHEVMEQGRVTIAKAGIHARLNARCSVLAAANPVYGRYDQYKTPMENIGLQDSLLSRFDLLFIMLDQMDPEQDREISDHVLRMHRYRAPGEQDGDAMPLGSAVDILATDDPNFSQEDQQDTQIYEKHDNLLHGTKKKKEKMVSAAFMKKYIHVAKIIKPVLTQESATYIAEEYSRLRSQDSMSSDTARTSPVTARTLETLIRLATAHAKARMSKTVDLQDAEEAVELVQYAYFKKVLEKEKKRKKRSEDESETEDEEEKSQEDQEQKRKRRKTRQPDAKDGDSYDPYDFSDTEEEMPQVHTPKTADSQETKESQKVELSESRLKAFKVALLDVFREAHAQSIGMNRLTESINRDSEEPFSSVEIQAALSKMQDDNQVMVSEGIIFLI
binding [1]: binds

More lines, now with the values ahead:

binding [1]: binds
Molecule: SLK, endogenous (from UniProt Q9H2G2 1-1235)

binding [1]: binds
B2: TSC22D4, endogenous (protein, UniProt Q9Y3Q8 1-395)
chain: MSGGKKKSSFQITSVTTDYEGPGSPGASDPPTPQPPTGPPPRLPNGEPSPDPGGKGTPRNGSPPPGAPSSRFRVVKLPHGLGEPYRRGRWTCVDVYERDLEPHSFGGLLEGIRGASGGAGGRSLDSRLELASLGLGAPTPPSGLSQGPTSWLRPPPTSPGPQARSFTGGLGQLVVPSKAKAEKPPLSASSPQQRPPEPETGESAGTSRAATPLPSLRVEAEAGGSGARTPPLSRRKAVDMRLRMELGAPEEMGQVPPLDSRPSSPALYFTHDASLVHKSPDPFGAVAAQKFSLAHSMLAISGHLDSDDDSGSGSLVGIDNKIEQAMDLVKSHLMFAVREEVEVLKEQIRELAERNAALEQENGLLRALASPEQLAQLPSSGVPRLGPPAPNGPSV
